Assay [1] addresses WWP2.4 WW domain expressed as GST fusion protein (human). Kind of assay: cross affinity mapping, GST-WW fusion.
Assay [2] has as its target WWP1.4 WW domain expressed as GST fusion protein (human). The assay can be described thus: cross affinity mapping, GST-WW fusion.
For assay [3], the target named is WWP2.1 WW domain expressed as GST fusion protein (human). Kind of assay: cross affinity mapping, GST-WW fusion.
The target of assay [4] is WWP2.2 WW domain expressed as GST fusion protein (human). Kind of assay: cross affinity mapping, GST-WW fusion.
The target of assay [5] is WWP1.1 WW domain expressed as GST fusion protein (human). Kind of assay: cross affinity mapping, GST-WW fusion.
The target in assay [6] is WWP3 WW domain expressed as GST fusion protein (human). The assay can be described thus: cross affinity mapping, GST-WW fusion.
Assay [7] has as its target mouse Nedd-4 (portions expressed by 5 cDNA clones) (mouse) (UniProt P46935). Kind of assay: filter-lift screen of cDNA expression library with biotinylated peptide-SA-AP complex.
Assay [8] has as its target WWP3 WW domain expressed as GST fusion protein (human). The assay can be described thus: ELISA cross affinity mapping, GST-WW fusion. Background: ELISA stands for enzyme-linked immunosorbent assay.
Assay [9] concerns the target WWP1.2 WW domain expressed as GST fusion protein (human). The assay can be described thus: ELISA cross affinity mapping, GST-WW fusion.
For assay [10], the target named is WWP2.3 WW domain expressed as GST fusion protein (human). Kind of assay: ELISA cross affinity mapping, GST-WW fusion.

By UniProt entry, the sequences of proteins in these tests, tags left out. Residues count along the entry.
UniProt P46935, residues 249-493: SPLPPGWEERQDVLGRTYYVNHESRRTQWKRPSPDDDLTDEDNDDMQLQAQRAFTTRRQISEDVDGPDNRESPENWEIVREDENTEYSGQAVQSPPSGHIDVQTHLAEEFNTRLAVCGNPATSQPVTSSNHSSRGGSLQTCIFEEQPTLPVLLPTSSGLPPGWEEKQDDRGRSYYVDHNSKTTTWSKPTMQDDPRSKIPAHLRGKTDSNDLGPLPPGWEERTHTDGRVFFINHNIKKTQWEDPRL

No constants are given. Whether binding was seen depends on the method and setting. Some entries that bind do so weakly or less than the wild type.

B1: Peptide bWW059 (wild-type PPPPY-like motif of the HECT domain of WWP4) (peptide)
peptide: NRLDLPPYETFED
modifications: biotinylated
For B1, the binding entry in [1], in assay [2], in assay [3], in assay [4] and in assay [5] was “binds” each time.

B2: ENaCγ peptide (biotin-…) (peptide)
peptide: PGTPPPKYNTLRL
modifications: N-terminal biotin
On to B2, for which the binding result in assay [6] was “binds”.

B3: ENaCβ peptide (biotin-…) (peptide)
peptide: PGTPPPNYDSLRL
modifications: N-terminal biotin
Consider B3, for which, in assay [6], the binding result is given as “binds”.

B4: QP peptide (biotin-…) (peptide)
peptide: YVQPPPPPYPGPM
modifications: N-terminal biotin
For the molecule B4, in [7], the binding entry was “binds”.

B5: WBP-2A-Pro3 (alanine substitution of the second proline of the PPPPY motif of WBP-2A) (peptide)
peptide: SGSGYVQPPAPPYPGPM
modifications: biotinylated
As to B5, the binding result in assay [8] is recorded as “binds”.

B6: WBP-1-Pro2 (alanine substitution of the second proline of the PPPPY motif of WBP-1) (peptide)
peptide: SGSGPGTPAPPYTVGPGY
modifications: biotinylated
Consider B6, for which the binding entry in [9] and in [10] was “binds” throughout.

The record behind these values is US7279548.
